Measured values reported in PMC6769930.
These are yes or no findings as the source states them, for the method shown. Binding calls can cover weak binding; strength is not graded here.

Amino acid sequences for entries named in this document (tags omitted). A change or cut given only in a name is not applied to a line headed by its entry. Residues count along the entry.
UniProt O14639: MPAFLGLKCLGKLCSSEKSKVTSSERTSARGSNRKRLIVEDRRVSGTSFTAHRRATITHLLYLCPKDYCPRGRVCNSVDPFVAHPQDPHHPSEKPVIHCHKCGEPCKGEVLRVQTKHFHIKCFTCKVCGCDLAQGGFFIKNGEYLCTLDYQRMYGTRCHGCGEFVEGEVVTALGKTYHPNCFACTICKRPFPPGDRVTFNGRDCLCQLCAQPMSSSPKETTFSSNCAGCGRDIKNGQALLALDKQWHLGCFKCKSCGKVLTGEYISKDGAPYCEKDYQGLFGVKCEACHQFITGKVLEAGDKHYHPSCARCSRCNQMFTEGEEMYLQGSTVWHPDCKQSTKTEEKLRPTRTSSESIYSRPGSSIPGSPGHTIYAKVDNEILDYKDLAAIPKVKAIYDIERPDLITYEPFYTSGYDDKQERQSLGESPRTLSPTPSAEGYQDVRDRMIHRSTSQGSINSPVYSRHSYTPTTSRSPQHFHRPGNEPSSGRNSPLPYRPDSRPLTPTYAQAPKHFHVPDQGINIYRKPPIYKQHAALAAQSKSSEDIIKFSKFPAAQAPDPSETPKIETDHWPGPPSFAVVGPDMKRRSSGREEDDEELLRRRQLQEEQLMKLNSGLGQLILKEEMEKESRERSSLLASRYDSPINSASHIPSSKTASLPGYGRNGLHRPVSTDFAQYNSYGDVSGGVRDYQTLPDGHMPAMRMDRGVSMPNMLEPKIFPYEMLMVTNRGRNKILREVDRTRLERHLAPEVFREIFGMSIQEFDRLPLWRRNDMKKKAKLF
UniProt P17813, residues 26-586: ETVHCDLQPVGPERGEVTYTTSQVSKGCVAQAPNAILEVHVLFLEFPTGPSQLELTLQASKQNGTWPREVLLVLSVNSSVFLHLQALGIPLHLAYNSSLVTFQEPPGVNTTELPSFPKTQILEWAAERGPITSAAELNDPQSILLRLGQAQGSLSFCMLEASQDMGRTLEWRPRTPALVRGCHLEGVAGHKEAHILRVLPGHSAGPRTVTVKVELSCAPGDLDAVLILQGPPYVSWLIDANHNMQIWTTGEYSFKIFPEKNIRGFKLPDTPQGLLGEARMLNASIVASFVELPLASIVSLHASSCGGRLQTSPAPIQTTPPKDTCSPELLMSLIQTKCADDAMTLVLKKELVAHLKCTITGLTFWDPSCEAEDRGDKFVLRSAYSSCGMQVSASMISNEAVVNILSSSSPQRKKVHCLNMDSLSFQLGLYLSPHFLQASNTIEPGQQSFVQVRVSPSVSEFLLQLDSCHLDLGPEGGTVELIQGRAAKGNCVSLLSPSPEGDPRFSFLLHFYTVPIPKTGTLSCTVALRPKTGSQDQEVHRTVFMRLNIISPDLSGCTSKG

Biological target: Actin-binding LIM protein 1 (ABLIM1) (human) (UniProt O14639)
Test: peptide or protein array; ProtoArray human protein Microarray v5.0 (over 9000 human proteins arrayed) probed with recombinant sEng in two replicates; detection with anti-endoglin mAb SN6h and HRP secondary antibody; hits with Z-score >=2.0 in both arrays; both purified

recombinant human soluble endoglin (sEng; Glu26-Gly586) (from UniProt P17813 26-586) (domain or fragment)
binding: binds
